According to PMC12870119:
Results are given in words; binding and its absence hold for the method and conditions named. In cells and extracts the contact can be indirect. Some results given as binding are weak or reduced against the parent protein; the word gives no strength.

Chains of the proteins cited; added tags and fusions are not shown.
UniProt Q8R4B8: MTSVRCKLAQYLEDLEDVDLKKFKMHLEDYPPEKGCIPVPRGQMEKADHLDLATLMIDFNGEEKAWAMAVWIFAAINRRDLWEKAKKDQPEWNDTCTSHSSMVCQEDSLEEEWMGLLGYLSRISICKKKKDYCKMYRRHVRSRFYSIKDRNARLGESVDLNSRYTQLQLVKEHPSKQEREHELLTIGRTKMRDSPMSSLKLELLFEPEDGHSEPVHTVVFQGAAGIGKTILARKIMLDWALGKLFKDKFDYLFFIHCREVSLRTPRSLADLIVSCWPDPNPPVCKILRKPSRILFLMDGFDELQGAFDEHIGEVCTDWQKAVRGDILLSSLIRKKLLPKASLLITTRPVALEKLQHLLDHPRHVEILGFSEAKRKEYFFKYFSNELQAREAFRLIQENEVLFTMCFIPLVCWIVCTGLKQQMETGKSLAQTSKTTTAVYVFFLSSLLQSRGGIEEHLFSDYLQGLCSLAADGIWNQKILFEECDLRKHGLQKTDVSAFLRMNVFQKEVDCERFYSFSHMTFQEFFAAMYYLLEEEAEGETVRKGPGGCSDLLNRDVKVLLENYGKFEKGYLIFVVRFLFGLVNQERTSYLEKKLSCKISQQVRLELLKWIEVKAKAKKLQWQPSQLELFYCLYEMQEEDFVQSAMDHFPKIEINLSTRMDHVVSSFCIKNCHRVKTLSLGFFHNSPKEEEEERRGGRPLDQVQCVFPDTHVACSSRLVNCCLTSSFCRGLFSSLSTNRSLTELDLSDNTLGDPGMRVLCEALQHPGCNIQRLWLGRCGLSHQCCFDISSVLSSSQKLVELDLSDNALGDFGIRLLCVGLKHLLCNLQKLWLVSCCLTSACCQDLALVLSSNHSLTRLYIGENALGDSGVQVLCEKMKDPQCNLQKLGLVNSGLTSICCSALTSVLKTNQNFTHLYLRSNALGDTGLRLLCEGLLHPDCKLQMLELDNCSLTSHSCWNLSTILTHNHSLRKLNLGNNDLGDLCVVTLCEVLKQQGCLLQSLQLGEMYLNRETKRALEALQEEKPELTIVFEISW

Target: T1, Stimulator of interferon genes (mouse (endogenous in DC2.4)) (UniProt Q3TBT3)
T1 sequence: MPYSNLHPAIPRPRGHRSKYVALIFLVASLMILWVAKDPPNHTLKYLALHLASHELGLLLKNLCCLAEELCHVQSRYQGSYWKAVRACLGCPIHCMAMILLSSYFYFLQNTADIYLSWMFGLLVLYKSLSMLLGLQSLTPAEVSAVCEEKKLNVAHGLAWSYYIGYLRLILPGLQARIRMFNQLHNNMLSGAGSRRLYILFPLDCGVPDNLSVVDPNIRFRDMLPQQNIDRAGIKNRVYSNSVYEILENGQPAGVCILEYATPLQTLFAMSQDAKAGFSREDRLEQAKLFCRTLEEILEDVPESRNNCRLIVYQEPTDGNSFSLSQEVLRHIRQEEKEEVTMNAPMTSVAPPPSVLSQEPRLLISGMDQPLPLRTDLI
Assay: co-IP; con and Trim13 KD DC2.4 cell lysates (nondenaturing lysis) immunoprecipitated with anti-STING antibody, protein A magnetic beads, probed with anti-NLRP3; cells stimulated with LPS (1 ug/ml, 24 h); IgG control

binding: binds
Substance: NLR family pyrin domain containing 3 (from UniProt Q8R4B8 1-1033)
